Data: the supplement of paper PMC8728848
The list shows a part of the results.

Legend:
Assay in all cases: glycan array binding signal (z-score within array); higher = stronger binding
Settings in all cases: glycan notation: IUPAC condensed, linker removed
Gal(a1-3)Gal = biological target: Gal(a1-3)Gal
In short: (§1)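 Glycan array data were curated from 3228 arrays in the Consortium for Functional Glycomics database and kept only where the protein sequence was available. Glycan names were converted to IUPAC-condensed notation, and columns mapping to the same glycan were averaged. The binding signal is a within-array Z-score, averaged across arrays of the same protein sequence at different concentrations or buffers and across linkers. Negative Z-scores can be read as non-binding.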

Gal(a1-3)Gal(b1-3)GlcNAc = biological target: Gal(a1-3)Gal(b1-3)GlcNAc
In short: as §1

[1] = biological target: Gal(a1-3)Gal(b1-3)GlcNAc(b1-2)Man(a1-3)[Gal(a1-3)Gal(b1-3)GlcNAc(b1-2)Man(a1-6)]Man(b1-4)GlcNAc(b1-4)GlcNAc
In short: as §1

[2] = biological target: Gal(a1-3)Gal(b1-3)GlcNAc(b1-3)GalNAc
In short: as §1

[3] = biological target: Gal(a1-3)Gal(b1-3)[Fuc(a1-4)]GlcNAc(b1-2)Man(a1-3)[Gal(a1-3)Gal(b1-3)[Fuc(a1-4)]GlcNAc(b1-2)Man(a1-6)]Man(b1-4)GlcNAc(b1-4)GlcNAc
In short: as §1

Gal(a1-3)Gal(b1-4)Glc = biological target: Gal(a1-3)Gal(b1-4)Glc
In short: as §1

Gal(a1-3)Gal(b1-4)GlcNAc = biological target: Gal(a1-3)Gal(b1-4)GlcNAc
In short: as §1

[4] = biological target: Gal(a1-3)Gal(b1-4)GlcNAc(b1-3)GalNAc
In short: as §1

[5] = biological target: Gal(a1-3)Gal(b1-4)[Fuc(a1-3)]GlcNAc
In short: as §1

[6] = biological target: Gal(a1-3)Gal(b1-4)[Fuc(a1-3)]GlcNAc(b1-2)Man(a1-3)[Gal(a1-3)Gal(b1-4)[Fuc(a1-3)]GlcNAc(b1-2)Man(a1-6)]Man(b1-4)GlcNAc(b1-4)GlcNAc
In short: as §1

Gal(a1-3)GalNAc = biological target: Gal(a1-3)GalNAc
In short: as §1

[7] = biological target: Gal(a1-3)[Gal(a1-4)]Gal(b1-4)GlcNAc
In short: as §1

[8] = biological target: Gal(a1-4)Gal(b1-3)GlcNAc(b1-2)Man(a1-3)[Gal(a1-4)Gal(b1-3)GlcNAc(b1-2)Man(a1-6)]Man(b1-4)GlcNAc(b1-4)GlcNAc
In short: as §1

Gal(a1-4)Gal(b1-4)Glc = biological target: Gal(a1-4)Gal(b1-4)Glc
In short: as §1

Gal(a1-4)Gal(b1-4)GlcNAc = biological target: Gal(a1-4)Gal(b1-4)GlcNAc
In short: as §1

[9] = biological target: Gal(a1-4)Gal(b1-4)GlcNAc(b1-2)Man(a1-3)[Gal(a1-4)Gal(b1-4)GlcNAc(b1-2)Man(a1-6)]Man(b1-4)GlcNAc(b1-4)GlcNAc
In short: as §1

[10] = biological target: Gal(a1-4)Gal(b1-4)GlcNAc(b1-3)Gal(b1-4)Glc
In short: as §1

Gal(a1-4)GlcNAc = biological target: Gal(a1-4)GlcNAc
In short: as §1

Gal(a1-6)Glc = biological target: Gal(a1-6)Glc
In short: as §1

Gal(b1-2)Gal = biological target: Gal(b1-2)Gal
In short: as §1

Gal(b1-3)Gal = biological target: Gal(b1-3)Gal
In short: as §1

Gal(b1-3)Gal(b1-4)GlcNAc = biological target: Gal(b1-3)Gal(b1-4)GlcNAc
In short: as §1

[11] = biological target: Gal(b1-3)Gal(b1-4)GlcNAc(b1-2)Man(a1-3)[Gal(b1-3)Gal(b1-4)GlcNAc(b1-2)Man(a1-6)]Man(b1-4)GlcNAc(b1-4)GlcNAc
In short: as §1

Gal(b1-3)GalNAc = biological target: Gal(b1-3)GalNAc
In short: as §1

[12] = biological target: Gal(b1-3)GalNAc(a1-3)[Fuc(a1-2)]Gal(b1-4)Glc
In short: as §1

[13] = biological target: Gal(b1-3)GalNAc(a1-3)[Fuc(a1-2)]Gal(b1-4)GlcNAc
In short: as §1

[14] = biological target: Gal(b1-3)GalNAc(b1-3)Gal(a1-4)Gal(b1-4)Glc
In short: as §1

[15] = biological target: Gal(b1-3)GalNAc(b1-4)Gal(b1-4)Glc
In short: as §1

[16] = biological target: Gal(b1-3)GalNAc(b1-4)[Neu5Ac(a2-3)]Gal(b1-4)Glc
In short: as §1

Gal(b1-3)GlcNAc = biological target: Gal(b1-3)GlcNAc
In short: as §1

[17] = biological target: Gal(b1-3)GlcNAc(a1-6)Gal(b1-4)GlcNAc
In short: as §1

[18] = biological target: Gal(b1-3)GlcNAc(b1-2)Man(a1-3)[Gal(b1-3)GlcNAc(b1-2)Man(a1-6)]Man(b1-4)GlcNAc(b1-4)GlcNAc
In short: as §1

[19] = biological target: Gal(b1-3)GlcNAc(b1-2)Man(a1-3)[Gal(b1-3)GlcNAc(b1-2)Man(a1-6)]Man(b1-4)GlcNAc(b1-4)[Fuc(a1-6)]GlcNAc
In short: as §1

[20] = biological target: Gal(b1-3)GlcNAc(b1-2)[Gal(b1-3)GlcNAc(b1-6)]Man(a1-6)[Gal(b1-3)GlcNAc(b1-2)Man(a1-3)]Man(b1-4)GlcNAc(b1-4)GlcNAc
In short: as §1

[21] = biological target: Gal(b1-3)GlcNAc(b1-3)Gal(b1-3)GlcNAc
In short: as §1

[22] = biological target: Gal(b1-3)GlcNAc(b1-3)Gal(b1-4)Glc
In short: as §1

[23] = biological target: Gal(b1-3)GlcNAc(b1-3)Gal(b1-4)GlcNAc
In short: as §1

B1: CD72 ectodomain (Homo sapiens), P21854 (protein)
chain: RYLQVSQQLQQTNRVLEVTNSSLRQQLRLKITQLGQSAEDLQGSRRELAQSQEALQVEQRAHQAAEGQLQACQADRQKTKETLQSEEQQRRALEQKLSNMENRLKPFFTCGSADTCCPSGWIMHQKSCFYISLTSKNWQESQKQCETLSSKLATFSEIYPQSHSYYFLNSLLPNGGSGNSYWTGLSSNKDWKLTDDTQRTRTYAQSSKCNKVHKTWSWWTLESESCRSSLPYICEMTAFRFPD
Gal(a1-3)Gal
  glycan array binding signal (z-score): -1.04
Gal(a1-3)Gal(b1-3)GlcNAc
  glycan array binding signal (z-score): -0.141
[1]
  glycan array binding signal (z-score): 0.087
[2]
  glycan array binding signal (z-score): 0.114
[3]
  glycan array binding signal (z-score): 1.75
Gal(a1-3)Gal(b1-4)Glc
  glycan array binding signal (z-score): -0.449
Gal(a1-3)Gal(b1-4)GlcNAc
  glycan array binding signal (z-score): -0.472
[4]
  glycan array binding signal (z-score): -1.69
[5]
  glycan array binding signal (z-score): 1.45
[6]
  glycan array binding signal (z-score): 1.57
Gal(a1-3)GalNAc
  glycan array binding signal (z-score): -1.09
[7]
  glycan array binding signal (z-score): -0.645
[8]
  glycan array binding signal (z-score): 0.548
Gal(a1-4)Gal(b1-4)Glc
  glycan array binding signal (z-score): -0.318
Gal(a1-4)Gal(b1-4)GlcNAc
  glycan array binding signal (z-score): 1.17
[9]
  glycan array binding signal (z-score): 0.8
[10]
  glycan array binding signal (z-score): 0.631
Gal(a1-4)GlcNAc
  glycan array binding signal (z-score): 1.25
Gal(a1-6)Glc
  glycan array binding signal (z-score): -0.172
Gal(b1-2)Gal
  glycan array binding signal (z-score): -0.773
Gal(b1-3)Gal
  glycan array binding signal (z-score): -1.42
Gal(b1-3)Gal(b1-4)GlcNAc
  glycan array binding signal (z-score): -0.207
[11]
  glycan array binding signal (z-score): -0.149
Gal(b1-3)GalNAc
  glycan array binding signal (z-score): -0.093
[12]
  glycan array binding signal (z-score): 0.456
[13]
  glycan array binding signal (z-score): 0.945
[14]
  glycan array binding signal (z-score): -0.019
[15]
  glycan array binding signal (z-score): -1.01
[16]
  glycan array binding signal (z-score): 1.16
Gal(b1-3)GlcNAc
  glycan array binding signal (z-score): -0.033
[17]
  glycan array binding signal (z-score): 0.263
[18]
  glycan array binding signal (z-score): 1.6
[19]
  glycan array binding signal (z-score): -0.071
[20]
  glycan array binding signal (z-score): 1.2
[21]
  glycan array binding signal (z-score): -0.958
[22]
  glycan array binding signal (z-score): -0.251
[23]
  glycan array binding signal (z-score): -0.634
